The target in this series is T1, GST-GRP8 WT (Arabidopsis thaliana) (UniProt Q03251).
T1 sequence (looked up): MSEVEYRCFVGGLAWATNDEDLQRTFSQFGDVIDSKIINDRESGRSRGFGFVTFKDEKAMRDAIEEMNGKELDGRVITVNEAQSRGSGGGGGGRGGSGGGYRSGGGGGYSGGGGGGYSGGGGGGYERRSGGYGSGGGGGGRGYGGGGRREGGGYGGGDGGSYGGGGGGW
The series is described as follows: EMSA. To be noted: 2 ug yeast tRNA competitor; residues 1-169.

The exact form of at least one protein or probe is not confirmed. At least one verdict was read from the data and is not stated in words by the source. Protein sequences can lack the tags named with them.

Data on one sequence can be found in publication doi:10.1101/2023.12.13.571504 (bioRxiv, 2023).

For the sequence “GUUUUUGGUUUAGAUUUGGUUUUGUGU [GRP8-3UTR-WT-Cy5]”, the binding result was “binds”.
